From article PMC7871608
Results are given in words; binding and its absence hold for the method and conditions named. Binding seen in cells or lysates may run through a third protein. A yes stands for co-enrichment or nearness to the bait. Other partners may have been found.

Chains of the proteins cited; added tags and fusions are not shown. Residues count along the entry.
UniProt Q96AY3, residues 27-582: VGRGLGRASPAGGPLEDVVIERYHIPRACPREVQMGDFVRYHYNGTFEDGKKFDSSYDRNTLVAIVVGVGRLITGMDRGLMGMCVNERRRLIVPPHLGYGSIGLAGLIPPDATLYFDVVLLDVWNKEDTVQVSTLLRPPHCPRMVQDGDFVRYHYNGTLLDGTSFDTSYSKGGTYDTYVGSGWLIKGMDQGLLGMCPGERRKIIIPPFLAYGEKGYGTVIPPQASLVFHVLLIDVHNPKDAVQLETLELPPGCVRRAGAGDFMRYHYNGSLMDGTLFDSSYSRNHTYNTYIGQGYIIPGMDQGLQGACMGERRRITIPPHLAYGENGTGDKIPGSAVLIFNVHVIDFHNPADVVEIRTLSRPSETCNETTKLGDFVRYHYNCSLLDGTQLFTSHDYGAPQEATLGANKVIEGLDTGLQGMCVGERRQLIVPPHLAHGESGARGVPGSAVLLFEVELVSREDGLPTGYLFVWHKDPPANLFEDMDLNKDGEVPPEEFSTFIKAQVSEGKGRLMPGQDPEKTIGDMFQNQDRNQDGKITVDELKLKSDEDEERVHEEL

Target: FKBP10 used as bait in the GST-pull down (UniProt Q96AY3)
Assay: affinity purification with mass spectrometry; GST-pull down from glioma cells followed by LC-MS/MS; no methods given

binding: binds
B1: Heat shock protein 47 (protein, UniProt P50454 19-418)
chain: AEVKKPAAAAAPGTAEKLSPKAATLAERSAGLAFSLYQAMAKDQAVENILVSPVVVASSLGLVSLGGKATTASQAKAVLSAEQLRDEEVHAGLGELLRSLSNSTARNVTWKLGSRLYGPSSVSFADDFVRSSKQHYNCEHSKINFRDKRSALQSINEWAAQTTDGKLPEVTKDVERTDGALLVNAMFFKPHWDEKFHHKMVDNRGFMVTRSYTVGVMMMHRTGLYNYYDDEKEKLQIVEMPLAHKLSSLIILMPHHVEPLERLEKLLTKEQLKIWMGKMQKKAVAISLPKGVVEVTHDLQKHLAGLGLTEAIDKNKADLSRMSGKKDLYLASVFHATAFELDTDGNPFDQDIYGREELRSPKLFYADHPFIFLVRDTQSGSLLFIGRLVRPKGDKMRDEL
